These are yes or no findings as the source states them, for the method shown. In cells and extracts the contact can be indirect. A yes stands for co-enrichment or nearness to the bait. Other partners may have been found.
What follows are substances tested against T1, Strep-LpxC (E. coli) (UniProt P0A725) (assay: affinity purification with mass spectrometry; Strep-LpxC overproduced in E. coli BL21 Δarg/Δlys grown at 30°C (slow), 37°C (medium) or 40°C (fast growth); Strep-tactin affinity purification from the lysate; co-purified proteins identified by LC-MS/MS with a super-SILAC standard; enriched >2-fold over the Strep-tag empty-vector control, p<0.05, or 'LpxC only').
T1 sequence: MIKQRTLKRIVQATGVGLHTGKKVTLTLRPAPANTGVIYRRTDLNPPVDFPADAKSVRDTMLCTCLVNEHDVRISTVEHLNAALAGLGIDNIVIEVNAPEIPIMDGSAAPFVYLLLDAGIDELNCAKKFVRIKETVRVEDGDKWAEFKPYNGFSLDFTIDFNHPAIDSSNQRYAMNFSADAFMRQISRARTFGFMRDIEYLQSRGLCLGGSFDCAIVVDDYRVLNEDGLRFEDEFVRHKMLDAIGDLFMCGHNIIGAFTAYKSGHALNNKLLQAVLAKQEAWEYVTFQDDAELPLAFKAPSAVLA

Protein sequences, listed by entry. Tags and fused reporters are not part of them. Residues count along the entry.
UniProt P76472: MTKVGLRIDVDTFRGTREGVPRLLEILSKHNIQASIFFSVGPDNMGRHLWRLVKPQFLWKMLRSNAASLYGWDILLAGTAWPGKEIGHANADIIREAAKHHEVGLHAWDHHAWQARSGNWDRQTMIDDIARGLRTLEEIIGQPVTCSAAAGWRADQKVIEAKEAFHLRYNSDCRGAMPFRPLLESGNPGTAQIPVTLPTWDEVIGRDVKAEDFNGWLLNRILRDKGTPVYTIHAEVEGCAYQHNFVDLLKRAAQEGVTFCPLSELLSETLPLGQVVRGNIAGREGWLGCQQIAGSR
UniProt P0AAI5: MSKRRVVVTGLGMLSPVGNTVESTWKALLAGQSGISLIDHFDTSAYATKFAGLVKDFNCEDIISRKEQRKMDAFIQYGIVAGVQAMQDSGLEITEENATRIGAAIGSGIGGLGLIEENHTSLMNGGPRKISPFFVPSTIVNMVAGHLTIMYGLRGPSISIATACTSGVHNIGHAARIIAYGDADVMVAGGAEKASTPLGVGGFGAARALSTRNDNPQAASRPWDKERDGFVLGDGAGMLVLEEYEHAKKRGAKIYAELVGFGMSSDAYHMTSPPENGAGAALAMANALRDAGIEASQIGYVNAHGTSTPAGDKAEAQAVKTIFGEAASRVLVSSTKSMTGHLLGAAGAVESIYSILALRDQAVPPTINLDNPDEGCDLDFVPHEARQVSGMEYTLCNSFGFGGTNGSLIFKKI
UniProt P0A8V6: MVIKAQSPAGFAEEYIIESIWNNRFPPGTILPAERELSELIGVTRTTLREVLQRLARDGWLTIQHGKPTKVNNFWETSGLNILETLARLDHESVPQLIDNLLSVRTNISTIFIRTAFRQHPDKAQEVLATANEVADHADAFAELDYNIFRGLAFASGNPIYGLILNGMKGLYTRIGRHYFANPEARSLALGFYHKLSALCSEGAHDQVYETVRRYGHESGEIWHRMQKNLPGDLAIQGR
UniProt P0AAI3: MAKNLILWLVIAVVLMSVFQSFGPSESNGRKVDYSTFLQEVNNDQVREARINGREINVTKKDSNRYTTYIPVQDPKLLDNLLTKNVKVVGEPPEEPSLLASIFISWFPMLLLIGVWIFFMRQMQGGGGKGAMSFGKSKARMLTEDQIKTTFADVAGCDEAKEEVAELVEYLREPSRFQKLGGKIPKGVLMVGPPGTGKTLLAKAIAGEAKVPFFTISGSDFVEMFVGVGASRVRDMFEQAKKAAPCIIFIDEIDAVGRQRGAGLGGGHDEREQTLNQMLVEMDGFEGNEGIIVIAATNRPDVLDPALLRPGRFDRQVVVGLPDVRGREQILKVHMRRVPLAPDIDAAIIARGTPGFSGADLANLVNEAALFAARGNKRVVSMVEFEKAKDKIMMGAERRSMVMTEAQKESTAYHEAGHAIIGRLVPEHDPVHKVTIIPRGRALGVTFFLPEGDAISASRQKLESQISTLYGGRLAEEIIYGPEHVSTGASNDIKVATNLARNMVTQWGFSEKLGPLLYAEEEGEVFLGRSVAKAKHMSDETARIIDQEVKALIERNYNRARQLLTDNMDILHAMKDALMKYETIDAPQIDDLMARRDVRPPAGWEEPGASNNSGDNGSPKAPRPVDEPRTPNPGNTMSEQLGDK
UniProt P0A6F5: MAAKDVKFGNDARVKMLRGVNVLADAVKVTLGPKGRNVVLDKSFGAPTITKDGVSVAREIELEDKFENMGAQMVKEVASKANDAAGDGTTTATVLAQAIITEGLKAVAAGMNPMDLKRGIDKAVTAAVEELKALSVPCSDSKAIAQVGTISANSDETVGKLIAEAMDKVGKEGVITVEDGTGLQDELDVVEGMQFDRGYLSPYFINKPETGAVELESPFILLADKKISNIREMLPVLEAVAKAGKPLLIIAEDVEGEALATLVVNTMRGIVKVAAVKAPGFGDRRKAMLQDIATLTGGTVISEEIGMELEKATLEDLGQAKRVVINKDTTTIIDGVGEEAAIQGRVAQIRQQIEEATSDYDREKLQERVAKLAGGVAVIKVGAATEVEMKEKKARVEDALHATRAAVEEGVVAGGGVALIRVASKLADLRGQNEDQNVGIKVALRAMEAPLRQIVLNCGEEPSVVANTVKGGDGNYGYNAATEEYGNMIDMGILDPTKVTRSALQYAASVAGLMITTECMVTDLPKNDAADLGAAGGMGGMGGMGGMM
UniProt P0A715: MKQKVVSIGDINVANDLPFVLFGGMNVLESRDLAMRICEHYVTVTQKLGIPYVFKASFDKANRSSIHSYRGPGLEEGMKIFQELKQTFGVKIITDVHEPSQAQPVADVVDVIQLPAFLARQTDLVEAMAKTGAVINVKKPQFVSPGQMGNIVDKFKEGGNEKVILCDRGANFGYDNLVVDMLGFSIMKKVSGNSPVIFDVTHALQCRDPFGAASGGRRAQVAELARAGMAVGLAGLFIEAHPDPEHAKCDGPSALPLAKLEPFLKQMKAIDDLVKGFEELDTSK
UniProt P04951: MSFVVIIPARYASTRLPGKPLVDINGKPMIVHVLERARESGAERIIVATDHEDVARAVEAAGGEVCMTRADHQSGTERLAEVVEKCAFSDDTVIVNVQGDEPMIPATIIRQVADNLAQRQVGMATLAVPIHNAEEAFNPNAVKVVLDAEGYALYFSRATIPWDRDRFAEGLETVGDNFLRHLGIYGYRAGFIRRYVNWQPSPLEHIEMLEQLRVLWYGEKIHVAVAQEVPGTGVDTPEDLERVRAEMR
UniProt P02943, residues 26-446: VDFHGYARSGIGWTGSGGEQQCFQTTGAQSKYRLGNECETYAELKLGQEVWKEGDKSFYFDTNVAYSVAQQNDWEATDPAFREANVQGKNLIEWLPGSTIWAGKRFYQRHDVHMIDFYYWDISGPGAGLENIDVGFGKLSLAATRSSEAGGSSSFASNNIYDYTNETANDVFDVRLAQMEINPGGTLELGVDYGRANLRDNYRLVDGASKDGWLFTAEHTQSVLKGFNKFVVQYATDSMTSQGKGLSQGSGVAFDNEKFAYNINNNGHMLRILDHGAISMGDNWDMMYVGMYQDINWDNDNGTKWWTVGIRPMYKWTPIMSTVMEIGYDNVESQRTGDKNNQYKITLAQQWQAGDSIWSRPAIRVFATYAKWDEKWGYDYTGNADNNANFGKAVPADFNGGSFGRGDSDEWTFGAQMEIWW
UniProt P0AG20: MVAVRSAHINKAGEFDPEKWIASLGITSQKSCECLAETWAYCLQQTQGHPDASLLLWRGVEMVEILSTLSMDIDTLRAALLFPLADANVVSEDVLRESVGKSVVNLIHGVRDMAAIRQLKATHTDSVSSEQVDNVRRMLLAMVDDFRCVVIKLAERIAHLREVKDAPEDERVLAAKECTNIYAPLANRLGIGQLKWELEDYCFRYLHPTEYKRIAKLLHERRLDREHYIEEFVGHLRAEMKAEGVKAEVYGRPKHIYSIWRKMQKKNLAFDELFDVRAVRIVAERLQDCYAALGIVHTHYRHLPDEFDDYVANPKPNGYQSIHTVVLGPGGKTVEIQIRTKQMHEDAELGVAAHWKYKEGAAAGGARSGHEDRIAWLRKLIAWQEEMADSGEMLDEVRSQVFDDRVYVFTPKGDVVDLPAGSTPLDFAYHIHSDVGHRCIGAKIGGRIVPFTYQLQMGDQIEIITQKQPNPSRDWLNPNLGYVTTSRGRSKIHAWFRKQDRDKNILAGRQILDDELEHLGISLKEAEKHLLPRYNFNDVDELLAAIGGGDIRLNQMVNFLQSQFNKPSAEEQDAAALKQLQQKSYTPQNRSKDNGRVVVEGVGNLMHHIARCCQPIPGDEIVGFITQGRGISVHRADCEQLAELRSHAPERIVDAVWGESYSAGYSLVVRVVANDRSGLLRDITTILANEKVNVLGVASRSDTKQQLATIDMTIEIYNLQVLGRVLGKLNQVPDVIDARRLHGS
UniProt P0AG24: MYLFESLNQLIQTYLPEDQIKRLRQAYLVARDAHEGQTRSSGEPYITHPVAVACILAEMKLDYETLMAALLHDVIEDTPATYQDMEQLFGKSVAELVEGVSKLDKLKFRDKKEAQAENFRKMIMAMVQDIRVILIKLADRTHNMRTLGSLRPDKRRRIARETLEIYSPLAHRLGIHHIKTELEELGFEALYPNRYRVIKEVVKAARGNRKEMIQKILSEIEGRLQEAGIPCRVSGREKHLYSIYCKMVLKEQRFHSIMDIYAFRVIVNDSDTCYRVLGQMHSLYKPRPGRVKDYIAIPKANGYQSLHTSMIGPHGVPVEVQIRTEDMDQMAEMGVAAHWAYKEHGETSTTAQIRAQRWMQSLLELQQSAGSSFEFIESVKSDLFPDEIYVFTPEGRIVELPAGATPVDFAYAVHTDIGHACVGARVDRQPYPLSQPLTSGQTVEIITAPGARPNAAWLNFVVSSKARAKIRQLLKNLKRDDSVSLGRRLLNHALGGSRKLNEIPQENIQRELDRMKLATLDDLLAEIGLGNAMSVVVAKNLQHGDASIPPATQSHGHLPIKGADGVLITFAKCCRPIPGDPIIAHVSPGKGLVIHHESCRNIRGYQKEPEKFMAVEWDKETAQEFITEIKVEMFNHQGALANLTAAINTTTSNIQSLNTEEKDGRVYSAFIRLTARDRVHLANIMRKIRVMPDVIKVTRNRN
UniProt P63224: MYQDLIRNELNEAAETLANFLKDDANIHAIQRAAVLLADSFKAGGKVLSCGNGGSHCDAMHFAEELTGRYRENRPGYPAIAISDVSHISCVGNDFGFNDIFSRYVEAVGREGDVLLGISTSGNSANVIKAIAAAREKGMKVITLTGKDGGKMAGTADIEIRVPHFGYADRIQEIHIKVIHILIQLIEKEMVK
UniProt P0A6B7: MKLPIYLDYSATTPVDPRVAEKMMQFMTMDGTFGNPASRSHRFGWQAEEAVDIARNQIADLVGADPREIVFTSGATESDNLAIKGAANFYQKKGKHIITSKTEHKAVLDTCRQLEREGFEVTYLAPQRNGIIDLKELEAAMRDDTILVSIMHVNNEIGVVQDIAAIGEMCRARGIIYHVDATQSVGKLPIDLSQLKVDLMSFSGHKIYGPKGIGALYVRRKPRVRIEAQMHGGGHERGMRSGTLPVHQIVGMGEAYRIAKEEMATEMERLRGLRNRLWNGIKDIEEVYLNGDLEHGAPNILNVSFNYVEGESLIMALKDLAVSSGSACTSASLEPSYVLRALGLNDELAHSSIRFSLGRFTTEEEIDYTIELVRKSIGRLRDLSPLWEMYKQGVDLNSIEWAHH
UniProt P0A850: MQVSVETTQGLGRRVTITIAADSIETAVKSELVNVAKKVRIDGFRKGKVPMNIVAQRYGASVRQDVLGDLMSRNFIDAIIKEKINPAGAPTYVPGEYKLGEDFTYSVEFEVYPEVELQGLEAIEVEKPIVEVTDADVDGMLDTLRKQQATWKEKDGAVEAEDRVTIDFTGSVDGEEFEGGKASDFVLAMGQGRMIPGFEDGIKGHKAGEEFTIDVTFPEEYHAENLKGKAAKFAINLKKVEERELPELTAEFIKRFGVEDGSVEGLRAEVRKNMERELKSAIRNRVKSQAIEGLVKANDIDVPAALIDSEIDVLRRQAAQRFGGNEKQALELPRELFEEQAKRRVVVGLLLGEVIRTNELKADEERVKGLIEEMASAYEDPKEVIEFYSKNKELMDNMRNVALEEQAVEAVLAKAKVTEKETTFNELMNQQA

binding, binds:
ArnD (from UniProt P76472 1-296) (enzyme)
FabF (from UniProt P0AAI5 1-413) (enzyme)
FadR (from UniProt P0A8V6 1-239)
FtsH (from UniProt P0AAI3 1-644) (enzyme)
GroEL (from UniProt P0A6F5 1-548)
KdsA (from UniProt P0A715 1-284) (enzyme)
KdsB (from UniProt P04951 1-248) (enzyme)
LamB (from UniProt P02943 26-446)
RelA (from UniProt P0AG20 1-744) (enzyme)
SpoT (from UniProt P0AG24 1-702) (enzyme)
WaaH (E. coli (endogenous in BL21 Δarg/Δlys)) (enzyme)

What follows are substances tested against His6-MBP-FtsH (E. coli) (UniProt P0AAI3) (assay: affinity purification with mass spectrometry; His6-MBP-FtsH overproduced in E. coli BL21 Δarg/Δlys grown at 30°C (slow), 37°C (medium) or 40°C (fast growth); Ni-NTA affinity purification from the lysate; co-purified proteins identified by LC-MS/MS with a super-SILAC standard; enriched >2-fold over the His6-MBP empty-vector control, p<0.05, or 'FtsH only').

binding, binds:
GmhA (from UniProt P63224 1-192) (enzyme)
IscS (from UniProt P0A6B7 1-404) (enzyme)
KdsA (from UniProt P0A715 1-284) (enzyme)
LamB (from UniProt P02943 26-446)
Tig (from UniProt P0A850 1-432)

From paper PMC6339880
